# Counter-ions that a name gives are not always drawn. Some of the results follow. Hit calls seldom repeat between salt and free forms of one compound.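 In K562 cells expressing nanoluciferase-fused kinases, luminescence was recorded at 4 h intervals between 2 and 18 h, normalized as percent of control with DMSO at 100% and a positive control at 0%. A significant (2 sigma) signal drop marks a time point as decreased. The authors' rule for a hit is not shown and takes in more than the number of time points.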
# Amino acid sequences for entries named in this document (tags omitted). A change or cut given only in a name is not applied to a line headed by its entry.
# UniProt P07949, whole entry, looked up: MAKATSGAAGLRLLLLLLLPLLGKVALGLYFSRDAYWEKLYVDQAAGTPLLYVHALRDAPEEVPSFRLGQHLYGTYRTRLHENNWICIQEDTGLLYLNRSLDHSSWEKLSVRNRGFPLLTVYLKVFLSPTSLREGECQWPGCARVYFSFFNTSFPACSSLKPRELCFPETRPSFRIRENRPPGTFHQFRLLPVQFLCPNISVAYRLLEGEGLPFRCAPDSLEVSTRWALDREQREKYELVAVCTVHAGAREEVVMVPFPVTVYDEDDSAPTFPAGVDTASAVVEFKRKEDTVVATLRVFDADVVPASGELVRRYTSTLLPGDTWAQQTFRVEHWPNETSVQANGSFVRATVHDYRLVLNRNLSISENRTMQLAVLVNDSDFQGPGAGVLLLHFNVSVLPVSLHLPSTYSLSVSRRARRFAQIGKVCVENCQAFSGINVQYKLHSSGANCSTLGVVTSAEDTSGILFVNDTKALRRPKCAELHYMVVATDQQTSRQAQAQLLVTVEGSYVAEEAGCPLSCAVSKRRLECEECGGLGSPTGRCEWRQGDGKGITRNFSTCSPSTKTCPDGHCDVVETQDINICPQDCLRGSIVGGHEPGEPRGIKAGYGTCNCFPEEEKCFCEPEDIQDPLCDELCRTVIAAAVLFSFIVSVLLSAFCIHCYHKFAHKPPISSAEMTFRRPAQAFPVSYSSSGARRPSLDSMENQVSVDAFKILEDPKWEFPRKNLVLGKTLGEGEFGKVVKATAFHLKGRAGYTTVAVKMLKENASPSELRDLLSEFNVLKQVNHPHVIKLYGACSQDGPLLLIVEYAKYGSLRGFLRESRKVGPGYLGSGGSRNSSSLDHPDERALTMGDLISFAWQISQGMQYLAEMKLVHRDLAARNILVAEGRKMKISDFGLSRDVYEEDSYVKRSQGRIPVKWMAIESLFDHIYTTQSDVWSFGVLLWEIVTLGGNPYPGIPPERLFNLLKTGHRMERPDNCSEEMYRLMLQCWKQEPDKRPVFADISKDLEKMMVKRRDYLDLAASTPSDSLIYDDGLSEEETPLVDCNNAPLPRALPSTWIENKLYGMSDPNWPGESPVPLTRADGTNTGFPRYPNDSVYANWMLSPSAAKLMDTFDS
# UniProt P07949, whole entry M918T, looked up: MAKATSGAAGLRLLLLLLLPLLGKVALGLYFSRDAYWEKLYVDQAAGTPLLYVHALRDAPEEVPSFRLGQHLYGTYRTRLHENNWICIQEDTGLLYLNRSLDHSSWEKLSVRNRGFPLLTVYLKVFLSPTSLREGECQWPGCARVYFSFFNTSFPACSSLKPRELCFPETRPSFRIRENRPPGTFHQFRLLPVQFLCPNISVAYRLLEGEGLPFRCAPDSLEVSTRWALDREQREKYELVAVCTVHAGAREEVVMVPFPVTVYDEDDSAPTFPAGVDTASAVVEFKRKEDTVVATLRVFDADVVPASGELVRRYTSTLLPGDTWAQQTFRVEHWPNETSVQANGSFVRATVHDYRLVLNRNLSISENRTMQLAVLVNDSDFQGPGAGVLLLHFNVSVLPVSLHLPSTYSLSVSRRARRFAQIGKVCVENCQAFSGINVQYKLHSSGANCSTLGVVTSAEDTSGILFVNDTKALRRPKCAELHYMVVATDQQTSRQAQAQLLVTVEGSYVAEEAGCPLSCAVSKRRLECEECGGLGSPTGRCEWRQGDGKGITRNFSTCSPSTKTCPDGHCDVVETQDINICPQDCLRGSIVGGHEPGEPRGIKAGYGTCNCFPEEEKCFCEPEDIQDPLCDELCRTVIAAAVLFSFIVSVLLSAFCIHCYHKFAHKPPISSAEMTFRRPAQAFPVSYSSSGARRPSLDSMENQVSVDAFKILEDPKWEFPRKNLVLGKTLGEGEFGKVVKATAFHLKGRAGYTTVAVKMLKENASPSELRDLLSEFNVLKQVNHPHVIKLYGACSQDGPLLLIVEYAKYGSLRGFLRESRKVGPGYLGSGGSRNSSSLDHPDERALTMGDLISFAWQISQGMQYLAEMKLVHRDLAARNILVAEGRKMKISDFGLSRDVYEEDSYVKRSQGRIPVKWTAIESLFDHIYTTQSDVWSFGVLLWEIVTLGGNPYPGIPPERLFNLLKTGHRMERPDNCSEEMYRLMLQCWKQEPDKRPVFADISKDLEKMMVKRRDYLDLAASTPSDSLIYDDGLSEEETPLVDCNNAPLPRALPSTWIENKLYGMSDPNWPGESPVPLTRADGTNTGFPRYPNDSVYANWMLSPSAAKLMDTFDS
# UniProt Q13546: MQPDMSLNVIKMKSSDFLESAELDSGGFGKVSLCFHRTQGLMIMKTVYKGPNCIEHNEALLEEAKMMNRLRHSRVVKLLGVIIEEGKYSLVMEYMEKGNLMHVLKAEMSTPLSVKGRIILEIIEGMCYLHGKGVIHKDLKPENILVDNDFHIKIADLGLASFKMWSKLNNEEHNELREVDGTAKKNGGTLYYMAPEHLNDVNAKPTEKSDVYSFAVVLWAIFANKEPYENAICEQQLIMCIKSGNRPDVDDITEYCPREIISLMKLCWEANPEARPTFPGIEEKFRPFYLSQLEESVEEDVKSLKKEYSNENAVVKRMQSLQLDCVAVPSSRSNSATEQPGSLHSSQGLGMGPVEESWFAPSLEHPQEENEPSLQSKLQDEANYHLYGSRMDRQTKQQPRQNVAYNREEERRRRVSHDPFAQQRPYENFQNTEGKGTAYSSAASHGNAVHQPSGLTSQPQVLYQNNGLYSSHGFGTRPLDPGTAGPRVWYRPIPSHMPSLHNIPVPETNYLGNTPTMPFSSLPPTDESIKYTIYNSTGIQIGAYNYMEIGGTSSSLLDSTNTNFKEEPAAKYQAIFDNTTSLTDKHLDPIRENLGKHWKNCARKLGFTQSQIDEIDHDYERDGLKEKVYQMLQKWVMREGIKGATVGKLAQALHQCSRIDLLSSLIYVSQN
# UniProt Q9NYA1, whole entry: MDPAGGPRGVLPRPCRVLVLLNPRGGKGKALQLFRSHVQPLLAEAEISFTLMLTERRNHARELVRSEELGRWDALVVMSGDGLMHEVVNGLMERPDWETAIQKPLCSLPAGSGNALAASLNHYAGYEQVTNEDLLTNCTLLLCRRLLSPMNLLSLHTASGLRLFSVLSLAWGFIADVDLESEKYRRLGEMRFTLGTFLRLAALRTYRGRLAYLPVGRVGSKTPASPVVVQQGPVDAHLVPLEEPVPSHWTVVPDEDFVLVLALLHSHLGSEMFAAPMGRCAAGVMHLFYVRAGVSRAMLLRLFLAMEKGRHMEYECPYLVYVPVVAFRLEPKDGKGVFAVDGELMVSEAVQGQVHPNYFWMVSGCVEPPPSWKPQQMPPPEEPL
# UniProt Q9Y6E0: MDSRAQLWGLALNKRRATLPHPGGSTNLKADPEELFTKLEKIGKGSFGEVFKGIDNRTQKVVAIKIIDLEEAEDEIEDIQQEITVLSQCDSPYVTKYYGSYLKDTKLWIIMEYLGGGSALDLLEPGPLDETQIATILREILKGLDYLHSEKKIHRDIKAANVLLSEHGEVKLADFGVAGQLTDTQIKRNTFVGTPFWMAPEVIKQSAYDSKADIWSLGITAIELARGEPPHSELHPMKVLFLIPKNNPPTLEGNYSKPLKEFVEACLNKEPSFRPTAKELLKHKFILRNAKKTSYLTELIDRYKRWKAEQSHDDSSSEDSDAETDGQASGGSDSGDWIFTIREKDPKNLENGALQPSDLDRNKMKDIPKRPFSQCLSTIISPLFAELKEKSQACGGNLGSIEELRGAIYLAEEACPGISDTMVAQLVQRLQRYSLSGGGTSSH
# UniProt P42680: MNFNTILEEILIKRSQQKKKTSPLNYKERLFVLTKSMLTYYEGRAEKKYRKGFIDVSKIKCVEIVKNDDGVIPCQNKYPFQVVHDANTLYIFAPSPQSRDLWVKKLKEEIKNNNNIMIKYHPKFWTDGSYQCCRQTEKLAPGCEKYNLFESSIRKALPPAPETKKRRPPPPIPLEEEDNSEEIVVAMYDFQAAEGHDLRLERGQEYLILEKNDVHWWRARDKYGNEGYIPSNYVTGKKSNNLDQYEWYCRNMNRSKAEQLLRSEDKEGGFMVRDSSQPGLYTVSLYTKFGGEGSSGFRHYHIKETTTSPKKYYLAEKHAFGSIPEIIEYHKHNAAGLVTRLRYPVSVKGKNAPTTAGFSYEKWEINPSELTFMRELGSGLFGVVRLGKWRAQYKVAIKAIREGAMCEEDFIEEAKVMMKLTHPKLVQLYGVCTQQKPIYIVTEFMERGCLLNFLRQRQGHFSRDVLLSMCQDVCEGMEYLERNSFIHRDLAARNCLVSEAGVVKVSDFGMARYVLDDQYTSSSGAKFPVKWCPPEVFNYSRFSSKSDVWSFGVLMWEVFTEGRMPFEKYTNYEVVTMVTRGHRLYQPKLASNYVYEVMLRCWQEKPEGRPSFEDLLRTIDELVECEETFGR
# UniProt P07947, whole entry, looked up: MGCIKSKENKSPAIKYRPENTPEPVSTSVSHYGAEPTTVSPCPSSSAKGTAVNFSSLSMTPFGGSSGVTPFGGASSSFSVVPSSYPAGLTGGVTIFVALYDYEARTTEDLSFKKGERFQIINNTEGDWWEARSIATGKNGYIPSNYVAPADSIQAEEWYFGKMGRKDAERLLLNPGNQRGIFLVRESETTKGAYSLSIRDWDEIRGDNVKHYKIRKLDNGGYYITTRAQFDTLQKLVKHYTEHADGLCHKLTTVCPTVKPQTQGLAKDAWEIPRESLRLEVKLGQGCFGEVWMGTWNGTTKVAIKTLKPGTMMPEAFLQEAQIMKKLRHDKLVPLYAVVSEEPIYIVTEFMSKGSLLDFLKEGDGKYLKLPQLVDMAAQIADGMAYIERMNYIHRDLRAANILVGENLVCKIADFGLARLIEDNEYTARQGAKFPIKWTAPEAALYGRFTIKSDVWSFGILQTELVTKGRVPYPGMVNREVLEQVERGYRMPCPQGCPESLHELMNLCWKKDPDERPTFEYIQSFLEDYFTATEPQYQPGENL
# UniProt P00519, whole entry: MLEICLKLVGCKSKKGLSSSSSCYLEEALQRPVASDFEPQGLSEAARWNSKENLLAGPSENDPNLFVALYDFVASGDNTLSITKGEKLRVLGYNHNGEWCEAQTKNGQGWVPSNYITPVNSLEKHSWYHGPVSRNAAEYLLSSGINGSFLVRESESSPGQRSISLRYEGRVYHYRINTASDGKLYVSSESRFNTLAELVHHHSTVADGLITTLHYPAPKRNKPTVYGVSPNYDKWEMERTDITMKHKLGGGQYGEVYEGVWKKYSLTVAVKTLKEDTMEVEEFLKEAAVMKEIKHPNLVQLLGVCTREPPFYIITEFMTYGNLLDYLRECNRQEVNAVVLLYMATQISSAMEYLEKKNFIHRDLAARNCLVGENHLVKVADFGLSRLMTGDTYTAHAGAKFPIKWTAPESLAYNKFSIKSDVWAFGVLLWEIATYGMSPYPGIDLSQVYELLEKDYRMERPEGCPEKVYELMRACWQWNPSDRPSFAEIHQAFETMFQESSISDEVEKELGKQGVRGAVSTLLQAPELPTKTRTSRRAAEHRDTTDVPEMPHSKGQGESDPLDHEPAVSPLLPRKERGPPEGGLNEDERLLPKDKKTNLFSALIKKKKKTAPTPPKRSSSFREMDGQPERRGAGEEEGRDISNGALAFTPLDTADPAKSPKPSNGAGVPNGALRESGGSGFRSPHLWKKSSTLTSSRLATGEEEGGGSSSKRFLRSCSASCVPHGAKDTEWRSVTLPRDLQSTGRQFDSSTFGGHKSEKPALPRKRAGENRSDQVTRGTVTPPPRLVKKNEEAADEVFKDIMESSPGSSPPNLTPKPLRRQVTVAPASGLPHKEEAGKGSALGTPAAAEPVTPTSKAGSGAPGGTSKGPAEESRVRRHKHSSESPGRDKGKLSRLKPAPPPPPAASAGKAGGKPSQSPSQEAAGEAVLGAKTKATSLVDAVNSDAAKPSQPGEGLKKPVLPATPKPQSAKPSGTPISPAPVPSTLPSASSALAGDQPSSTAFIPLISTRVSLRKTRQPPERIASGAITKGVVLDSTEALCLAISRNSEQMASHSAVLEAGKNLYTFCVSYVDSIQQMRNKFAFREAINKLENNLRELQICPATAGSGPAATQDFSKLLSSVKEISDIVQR
# UniProt P31749: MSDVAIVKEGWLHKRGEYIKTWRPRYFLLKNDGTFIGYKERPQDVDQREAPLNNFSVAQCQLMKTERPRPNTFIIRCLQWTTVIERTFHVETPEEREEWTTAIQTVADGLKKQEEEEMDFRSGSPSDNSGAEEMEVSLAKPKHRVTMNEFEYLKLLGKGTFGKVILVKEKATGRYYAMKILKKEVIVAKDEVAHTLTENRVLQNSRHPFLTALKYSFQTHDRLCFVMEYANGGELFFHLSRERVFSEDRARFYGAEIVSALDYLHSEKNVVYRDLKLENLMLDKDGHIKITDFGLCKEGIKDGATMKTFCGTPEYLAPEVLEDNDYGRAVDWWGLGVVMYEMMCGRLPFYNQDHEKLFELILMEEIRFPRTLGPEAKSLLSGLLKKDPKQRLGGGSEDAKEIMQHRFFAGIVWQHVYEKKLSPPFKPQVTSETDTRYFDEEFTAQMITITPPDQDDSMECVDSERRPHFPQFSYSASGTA
# Assays:
# Conditions in all cases: K562; 2-18 h
# RET = RET (UniProt P07949); assay: kinase-Nluc reporter destabilization hit call (1 = scored as downregulated) (binary); higher = compound decreases kinase abundance
# [1] = target: RET_M918T (clone: RET_mut) (UniProt P07949); assay: as above
# RIOK1 = RIOK1 (UniProt Q9BRS2); assay: as above
# RIPK1 = RIPK1 (UniProt Q13546); assay: as above
# RIPK2 = RIPK2 (UniProt O43353); assay: as above
# ROR2 = ROR2 (UniProt Q01974); assay: as above
# RPS6KA1 = RPS6KA1 (UniProt Q15418); assay: as above
# SPHK1 = SPHK1 (UniProt Q9NYA1); assay: as above
# SRC = SRC (UniProt P12931); assay: as above
# STK24 = STK24 (UniProt Q9Y6E0); assay: as above
# STK38 = STK38 (UniProt Q15208); assay: as above
# SYK = SYK (UniProt P43405); assay: as above
# TEC = TEC (UniProt P42680); assay: as above
# TYK2 = TYK2 (UniProt P29597); assay: as above
# ULK3 = ULK3 (UniProt Q6PHR2); assay: as above
# YES1 = YES1 (UniProt P07947); assay: as above
# ZAK = ZAK (UniProt Q9NYL2); assay: as above
# ZAP70 = ZAP70 (UniProt P43403); assay: as above
# ABL1 = ABL1 (UniProt P00519); assay: number of time points (of 5) at which kinase-Nluc abundance scored as decreased, DMSO-normalised (count); higher = more persistent destabilization
# AKT1 = AKT1 (UniProt P31749); assay: as above
Structure (SMILES),kinase-Nluc reporter destabilization hit call (RET),kinase-Nluc reporter destabilization hit call [1],kinase-Nluc reporter destabilization hit call (RIOK1),kinase-Nluc reporter destabilization hit call (RIPK1),kinase-Nluc reporter destabilization hit call (RIPK2),kinase-Nluc reporter destabilization hit call (ROR2),kinase-Nluc reporter destabilization hit call (RPS6KA1),kinase-Nluc reporter destabilization hit call (SPHK1),kinase-Nluc reporter destabilization hit call (SRC),kinase-Nluc reporter destabilization hit call (STK24),kinase-Nluc reporter destabilization hit call (STK38),kinase-Nluc reporter destabilization hit call (SYK),kinase-Nluc reporter destabilization hit call (TEC),kinase-Nluc reporter destabilization hit call (TYK2),kinase-Nluc reporter destabilization hit call (ULK3),kinase-Nluc reporter destabilization hit call (YES1),kinase-Nluc reporter destabilization hit call (ZAK),kinase-Nluc reporter destabilization hit call (ZAP70),number of time points (ABL1),number of time points (AKT1)
COc1cccc(-n2c(=O)[nH]c3cc(Cl)n(-c4ccc(-c5cccc(OC)c5O)cc4)c3c2=O)c1 (2.5 µM),inactive: 0,inactive: 0,inactive: 0,inactive: 0,inactive: 0,inactive: 0,inactive: 0,inactive: 0,inactive: 0,inactive: 0,inactive: 0,inactive: 0,inactive: 0,inactive: 0,inactive: 0,inactive: 0,inactive: 0,inactive: 0,0,0
COCCOc1cnc(Sc2cc(C)c(-c3csc(NC(=O)c4ccncc4)n3)c(C)c2)cn1 [T-1101 (tosylate)] (2.5 µM),inactive: 0,inactive: 0,inactive: 0,inactive: 0,inactive: 0,inactive: 0,inactive: 0,inactive: 0,inactive: 0,inactive: 0,inactive: 0,inactive: 0,inactive: 0,inactive: 0,inactive: 0,inactive: 0,inactive: 0,inactive: 0,0,0
CC(C)=CCC[C@](C)(O[C@@H]1O[C@H](CO)[C@@H](O)[C@H](O)[C@H]1O)[C@H]1CC[C@]2(C)[C@@H]1[C@H](O)C[C@@H]1[C@@]3(C)CC[C@H](O)C(C)(C)[C@@H]3[C@@H](O[C@@H]3O[C@H](CO)[C@@H](O)[C@H](O)[C@H]3O[C@@H]3O[C@@H](C)[C@H](O)[C@@H](O)[C@H]3O)C[C@]12C [Ginsenoside Re] (10 µM),inactive: 0,inactive: 0,inactive: 0,inactive: 0,inactive: 0,inactive: 0,inactive: 0,inactive: 0,inactive: 0,inactive: 0,inactive: 0,inactive: 0,inactive: 0,inactive: 0,inactive: 0,inactive: 0,inactive: 0,inactive: 0,0,0
Nc1nccc(Oc2ccc(NC(=O)c3cn(COP(=O)(O)O)cc(-c4ccc(F)cc4)c3=O)cc2F)c1Cl (10 µM),inactive: 0,inactive: 0,inactive: 0,inactive: 0,inactive: 0,inactive: 0,inactive: 0,inactive: 0,inactive: 0,inactive: 0,inactive: 0,inactive: 0,inactive: 0,inactive: 0,inactive: 0,inactive: 0,inactive: 0,inactive: 0,0,0
N[C@H](Cc1c[nH]c2ccccc12)C(=O)N/N=C/c1ccc2nccnc2c1 [Rhosin (hydrochloride)] (10 µM),inactive: 0,inactive: 0,inactive: 0,inactive: 0,inactive: 0,inactive: 0,inactive: 0,inactive: 0,inactive: 0,inactive: 0,inactive: 0,inactive: 0,inactive: 0,inactive: 0,inactive: 0,inactive: 0,inactive: 0,inactive: 0,0,0
C=CC(=O)Nc1cc2c(Nc3ccc(OCc4ccccn4)c(Cl)c3)ncnc2cc1OCCN1CCOCC1 (10 µM),inactive: 0,inactive: 0,inactive: 0,inactive: 0,inactive: 0,inactive: 0,inactive: 0,inactive: 0,inactive: 0,inactive: 0,inactive: 0,inactive: 0,inactive: 0,inactive: 0,inactive: 0,inactive: 0,inactive: 0,inactive: 0,0,0
"O=C(/C=C/c1ccc(O)c(O)c1)OC1CC(OC(=O)/C=C/c2ccc(O)c(O)c2)(C(=O)O)CC(O)C1O (stereo not given) [1,3-Dicaffeoylquinic acid] (10 µM)",inactive: 0,inactive: 0,inactive: 0,inactive: 0,inactive: 0,inactive: 0,inactive: 0,inactive: 0,inactive: 0,inactive: 0,inactive: 0,inactive: 0,inactive: 0,inactive: 0,inactive: 0,inactive: 0,inactive: 0,inactive: 0,0,0
CCOc1ccc(C(=O)Nc2ncc([N+](=O)[O-])s2)cc1 (10 µM),inactive: 0,inactive: 0,inactive: 0,inactive: 0,inactive: 0,inactive: 0,inactive: 0,inactive: 0,inactive: 0,inactive: 0,inactive: 0,inactive: 0,inactive: 0,inactive: 0,inactive: 0,inactive: 0,inactive: 0,inactive: 0,0,0
